Reference: PubChem BioAssay AID1259308 (NCATS, 2017)

- Test: 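Knock-downs that increase output of a recombinant reporter protein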 (primary screen)
- Cell system: human HEK293 embryonic kidney cells stably expressing firefly luciferase (HEK-CMV-Luc2-Hygro)
- Reagent: single siRNA against human genes, 0.8 pmol siRNA per well
- Timing: 72 h
- Read-out: 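Reporter luminescence and viable-cell signal on separate replicate plates, given as percent of non-targeting control and median/MAD z-scores, plus per-cell luciferase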
- Direction: total luciferase, z-score and total luciferase, % of control: higher = more reporter protein produced; luciferase per cell, z-score: higher = more reporter output per viable cell; viable cells, % of control: higher = more viable cells
- Call rule: 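An siRNA counts as active if its total luciferase robust z-score exceeds 3; genes with two or more such siRNAs out of three were retested with fresh siRNAs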
- Calls: active = raised luciferase; inactive = no rise
Shown is an unselected part of about 59,000 reagents. About 1,510 of all reagents (2.6%) were called active. 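Calls use total luciferase alone and ignore viability, so some active siRNAs may act by altering cell number.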 Entries without a mark were called inactive.

no.	gene knocked down	PubChem SID	total luciferase, z-score	total luciferase, % of control	luciferase per cell, z-score	viable cells, % of control
1	FECH (ferrochelatase)	SID160770081	0.453	90.9	-0.00355	102
2	FECH (ferrochelatase)	SID160770173	0.0961	83.8	-0.556	108
3	FECH (ferrochelatase)	SID160770267	1.44	110	0.638	104
4	PRR20A (proline rich 20A)	SID160732383	2.33	128	2.3	78.2
5	PRR20A (proline rich 20A)	SID160755964	0.0617	83.1	0.375	84.1
6	PRR20A (proline rich 20A)	SID160755965	-0.0511	80.9	-0.743	110
7	MRPL57 (mitochondrial ribosomal protein L57)	SID160748424	0.0568	83	-0.411	103
8	MRPL57 (mitochondrial ribosomal protein L57)	SID160748425	-1.24	57.3	-1.21	88.1
9	MRPL57 (mitochondrial ribosomal protein L57)	SID160748426	-1.22	57.5	-0.214	68
10	SRPRB (SRP receptor subunit beta)	SID160746808	0.322	88.3	1.03	75.3
11	SRPRB (SRP receptor subunit beta)	SID160746810	-0.342	75.1	-0.426	93.9
12	SRPRB (SRP receptor subunit beta)	SID160746811	1.58	113	1.19	92.7
13	CIMIP6 (ciliary microtubule inner protein 6)	SID160732461	1.59	113	0.808	102
14	CIMIP6 (ciliary microtubule inner protein 6)	SID160756902	-0.423	73.5	-0.312	89.1
15	CIMIP6 (ciliary microtubule inner protein 6)	SID160756903	-1.79	46.3	-1.29	72.5
16	TRIT1 (tRNA isopentenyltransferase 1)	SID160742191	-0.478	72.4	-0.656	96.1
17	TRIT1 (tRNA isopentenyltransferase 1)	SID160742192	0.111	84.1	-0.248	100
18	TRIT1 (tRNA isopentenyltransferase 1)	SID160742194	0.212	86.1	-0.224	102
19	FAM47B (family with sequence similarity 47 member B)	SID160730700	0.225	86.4	1.8	60.1
20	FAM47B (family with sequence similarity 47 member B)	SID160760379	0.307	88	0.918	77.2
21	FAM47B (family with sequence similarity 47 member B)	SID160760380	-0.747	67	-1.41	109
22	AHSP (alpha hemoglobin stabilizing protein)	SID160740618	-0.46	72.7	1.24	58.7
23	AHSP (alpha hemoglobin stabilizing protein)	SID160740619	0.198	85.8	0.335	87.8
24	AHSP (alpha hemoglobin stabilizing protein)	SID160740620	-0.208	77.8	0.571	74.8
25	ECPAS (Ecm29 proteasome adaptor and scaffold)	SID160736179	0.659	95	0.651	89.4
26	ECPAS (Ecm29 proteasome adaptor and scaffold)	SID160736180	-0.251	76.9	-0.259	92
27	ECPAS (Ecm29 proteasome adaptor and scaffold)	SID160736181	-0.472	72.5	-0.733	98.3
28	RCOR1 (REST corepressor 1)	SID160735657	-1.01	61.9	0.242	64.9
29	RCOR1 (REST corepressor 1)	SID160735659	-1.2	58	-1.43	94.3
30	RCOR1 (REST corepressor 1)	SID160735660	1.65	115	1.7	82
31	USP28 (ubiquitin specific peptidase 28)	SID160746483	-0.116	79.6	-0.446	100
32	USP28 (ubiquitin specific peptidase 28)	SID160746484	-0.54	71.1	-0.354	87.3
33	USP28 (ubiquitin specific peptidase 28)	SID160746486	-0.361	74.7	-0.937	107
34	TP53RK (TP53 regulating kinase)	SID160730534	0.475	91.3	-0.065	104
35	TP53RK (TP53 regulating kinase)	SID160754750	0.00896	82.1	-0.364	101
36	TP53RK (TP53 regulating kinase)	SID160754751	-0.0325	81.2	-0.457	102
37	NUTM2E (NUT family member 2E)	SID160724978	0.307	88	0.346	89.8
38	NUTM2E (NUT family member 2E)	SID160724980	1.57	113	1.75	79.6
39	NUTM2E (NUT family member 2E)	SID160724981	0.461	91	0.343	93
40	JAM3 (junctional adhesion molecule 3)	SID160751335	1.55	113	2.61	63.2
41	JAM3 (junctional adhesion molecule 3)	SID160751336	-0.831	65.4	-1.18	99.6
42	JAM3 (junctional adhesion molecule 3)	SID160751337	-1.68	48.5	-1.12	72.8
43	PLA1A (phospholipase A1 member A)	SID160740686	0.0615	83.1	0.25	87
44	PLA1A (phospholipase A1 member A)	SID160740687	-1.67	48.6	-1.87	88.9
45	PLA1A (phospholipase A1 member A)	SID160740688	0.933	100	0.418	101
46	LOC642355 (nucleoside diphosphate kinase, mitochondrial-like)	SID160725509	0.682	95.5	0.289	98.9
47	LOC642355 (nucleoside diphosphate kinase, mitochondrial-like)	SID160725510	-0.687	68.2	-1.55	115
48	LOC642355 (nucleoside diphosphate kinase, mitochondrial-like)	SID160768469	-0.643	69.1	-0.399	85.8
49	TTC1 (tetratricopeptide repeat domain 1)	SID160718416	-1.05	61	-0.926	87.1
50	TTC1 (tetratricopeptide repeat domain 1)	SID160718418	2.26	127	2.55	72.4
51	TTC1 (tetratricopeptide repeat domain 1)	SID160718419	0.0317	82.5	-0.262	98.8
52	MBLAC1 (metallo-beta-lactamase domain containing 1)	SID160732818	-0.278	76.4	0.269	79.5
53	MBLAC1 (metallo-beta-lactamase domain containing 1)	SID160762318	2.21	126	2.29	76.8
54	MBLAC1 (metallo-beta-lactamase domain containing 1)	SID160762319	-1.73	47.4	-0.945	68
55	MAB21L2 (mab-21 like 2)	SID160728795	2.06	123	1.56	91.1
56	MAB21L2 (mab-21 like 2)	SID160728796	0.25	86.9	0.0586	95.6
57	MAB21L2 (mab-21 like 2)	SID160728798	0.312	88.1	-0.54	113
